Where two headings read alike, the source gives them in different places. These are yes or no findings as the source states them, for the method shown. Binding seen in cells or lysates may run through a third protein. Here binding means that the protein was enriched with, or labelled near, the bait; the list need not be complete. Where a sequence is shown, tags or fusion partners need not be part of it. Values belong to the molecule of their own block, whether it stands above or below them.
Legend:
[1] = target: T1, HMGN5-GFP (human HMGN5 with C-terminal GFP, HMGN5-FlpIn cell line) (human) (UniProt P82970); assay: affinity purification with mass spectrometry
T1 sequence: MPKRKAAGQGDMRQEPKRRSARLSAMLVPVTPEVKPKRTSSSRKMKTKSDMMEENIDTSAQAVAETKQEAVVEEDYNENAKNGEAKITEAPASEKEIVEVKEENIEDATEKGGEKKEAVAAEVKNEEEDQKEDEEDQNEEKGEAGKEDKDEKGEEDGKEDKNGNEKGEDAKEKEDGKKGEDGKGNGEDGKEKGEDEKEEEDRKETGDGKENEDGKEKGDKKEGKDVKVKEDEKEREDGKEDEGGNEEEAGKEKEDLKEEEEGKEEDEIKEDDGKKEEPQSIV

Amino acid sequences for entries named in this document (tags omitted).
UniProt Q9H4L4: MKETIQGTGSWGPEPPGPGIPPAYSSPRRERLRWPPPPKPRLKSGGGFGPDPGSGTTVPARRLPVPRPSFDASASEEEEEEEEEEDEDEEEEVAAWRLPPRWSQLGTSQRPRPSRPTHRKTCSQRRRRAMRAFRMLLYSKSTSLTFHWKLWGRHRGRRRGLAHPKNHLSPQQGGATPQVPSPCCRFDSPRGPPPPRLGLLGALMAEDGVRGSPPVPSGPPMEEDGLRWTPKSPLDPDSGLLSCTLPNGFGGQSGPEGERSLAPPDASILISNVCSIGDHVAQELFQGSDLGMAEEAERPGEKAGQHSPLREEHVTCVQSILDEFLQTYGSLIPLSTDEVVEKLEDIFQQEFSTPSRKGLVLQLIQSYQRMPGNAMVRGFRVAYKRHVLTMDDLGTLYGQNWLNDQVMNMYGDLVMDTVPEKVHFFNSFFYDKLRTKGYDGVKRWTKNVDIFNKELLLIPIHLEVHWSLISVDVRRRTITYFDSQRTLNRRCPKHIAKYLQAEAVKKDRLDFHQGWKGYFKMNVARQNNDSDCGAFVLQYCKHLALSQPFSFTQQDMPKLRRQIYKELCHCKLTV
UniProt Q8IZL8: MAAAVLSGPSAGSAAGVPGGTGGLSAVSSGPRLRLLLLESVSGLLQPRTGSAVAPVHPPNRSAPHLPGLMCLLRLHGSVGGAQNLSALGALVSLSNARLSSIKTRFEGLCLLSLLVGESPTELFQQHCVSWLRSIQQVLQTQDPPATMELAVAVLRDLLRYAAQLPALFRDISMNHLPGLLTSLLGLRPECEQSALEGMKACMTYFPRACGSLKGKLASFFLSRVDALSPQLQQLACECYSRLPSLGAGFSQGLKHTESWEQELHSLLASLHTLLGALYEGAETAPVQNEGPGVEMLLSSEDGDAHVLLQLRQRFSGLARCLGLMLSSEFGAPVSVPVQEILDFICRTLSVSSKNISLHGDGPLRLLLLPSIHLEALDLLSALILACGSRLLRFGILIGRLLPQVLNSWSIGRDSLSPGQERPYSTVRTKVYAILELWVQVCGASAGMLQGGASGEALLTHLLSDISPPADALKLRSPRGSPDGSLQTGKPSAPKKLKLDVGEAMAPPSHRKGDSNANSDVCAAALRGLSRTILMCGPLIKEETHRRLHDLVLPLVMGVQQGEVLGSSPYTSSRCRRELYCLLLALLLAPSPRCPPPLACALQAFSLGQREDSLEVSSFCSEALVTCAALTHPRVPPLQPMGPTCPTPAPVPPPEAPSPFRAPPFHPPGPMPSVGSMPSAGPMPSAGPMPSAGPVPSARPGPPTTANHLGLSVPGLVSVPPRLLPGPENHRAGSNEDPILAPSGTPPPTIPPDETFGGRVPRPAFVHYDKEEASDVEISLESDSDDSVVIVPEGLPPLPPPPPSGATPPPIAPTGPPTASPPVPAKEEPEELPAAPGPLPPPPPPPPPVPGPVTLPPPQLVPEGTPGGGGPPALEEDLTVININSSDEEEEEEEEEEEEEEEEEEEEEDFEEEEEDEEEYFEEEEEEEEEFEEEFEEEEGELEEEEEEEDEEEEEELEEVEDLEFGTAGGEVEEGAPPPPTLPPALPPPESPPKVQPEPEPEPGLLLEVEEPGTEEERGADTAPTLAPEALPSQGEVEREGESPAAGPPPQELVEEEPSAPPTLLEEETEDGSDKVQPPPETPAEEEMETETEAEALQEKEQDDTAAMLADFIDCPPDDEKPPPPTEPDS

[2] = target: T1, HMGN5-GFP (human HMGN5 with C-terminal GFP, HMGN5-FlpIn cell line) (human); assay: affinity purification with mass spectrometry; remark: listed apart in the source

- binding [1]: binds
Molecule: SENP3 (from UniProt Q9H4L4 1-574)

- binding [1]: binds
Molecule: PELP1 (from UniProt Q8IZL8 1-1130)

- binding [2]: binds
B1: TEX10 (protein, UniProt Q9NXF1 1-929)
chain: MTKKRKRQHDFQKVKLKVGKKKPKLQNATPTNFKTKTIHLPEQLKEDGTLPTNNRKLNIKDLLSQMHHYNAGVKQSALLGLKDLLSQYPFIIDAHLSNILSEVTAVFTDKDANVRLAAVQLLQFLAPKIRAEQISPFFPLVSAHLSSAMTHITEGIQEDSLKVLDILLEQYPALITGRSSILLKNFVELISHQQLSKGLINRDRSQSWILSVNPNRRLTSQQWRLKVLVRLSKFLQALADGSSRLRESEGLQEQKENPHATSNSIFINWKEHANDQQHIQVYENGGSQPNVSSQFRLRYLVGGLSGVDEGLSSTENLKGFIEIIIPLLIECWVEAVPPQLATPVGNGIEREPLQVMQQVLNIISLLWKLSKQQDETHKLESWLRKNYLIDFKHHFMSRFPYVLKEITKHKRKEPNKSIKHCTVLSNNIDHLLLNLTLSDIMVSLANASTLQKDCSWIEMIRKFVTETLEDGSRLNSKQLNRLLGVSWRLMQIQPNREDTETLIKAVYTLYQQRGLILPVRTLLLKFFSKIYQTEELRSCRFRYRSKVLSRWLAGLPLQLAHLGSRNPELSTQLIDIIHTAAARANKELLKSLQATALRIYDPQEGAVVVLPADSQQRLVQLVYFLPSLPADLLSRLSRCCIMGRLSSSLAAMLIGILHMRSSFSGWKYSAKDWLMSDVDYFSFLFSTLTGFSKEELTWLQSLRGVPHVIQTQLSPVLLYLTDLDQFLHHWDVTEAVFHSLLVIPARSQNFDILQSAISKHLVGLTVIPDSTAGCVFGVICKLLDHTCVVSETLLPFLASCCYSLLYFLLTIEKGEAEHLRKRDKLWGVCVSILALLPRVLRLMLQSLRVNRVGPEELPVVGQLLRLLLQHAPLRTHMLTNAILVQQIIKNITTLKSGSVQEQWLTDLHYCFNVYITGHPQGPSALATVY

- binding [2]: binds
B2: LAS1 (protein, UniProt Q9Y4W2 1-734)
chain: MSWESGAGPGLGSQGMDLVWSAWYGKCVKGKGSLPLSAHGIVVAWLSRAEWDQVTVYLFCDDHKLQRYALNRITVWRSRSGNELPLAVASTADLIRCKLLDVTGGLGTDELRLLYGMALVRFVNLISERKTKFAKVPLKCLAQEVNIPDWIVDLRHELTHKKMPHINDCRRGCYFVLDWLQKTYWCRQLENSLRETWELEEFREGIEEEDQEEDKNIVVDDITEQKPEPQDDGKSTESDVKADGDSKGSEEVDSHCKKALSHKELYERARELLVSYEEEQFTVLEKFRYLPKAIKAWNNPSPRVECVLAELKGVTCENREAVLDAFLDDGFLVPTFEQLAALQIEYEDGQTEVQRGEGTDPKSHKNVDLNDVLVPKPFSQFWQPLLRGLHSQNFTQALLERMLSELPALGISGIRPTYILRWTVELIVANTKTGRNARRFSAGQWEARRGWRLFNCSASLDWPRMVESCLGSPCWASPQLLRIIFKAMGQGLPDEEQEKLLRICSIYTQSGENSLVQEGSEASPIGKSPYTLDSLYWSVKPASSSFGSEAKAQQQEEQGSVNDVKEEEKEEKEVLPDQVEEEEENDDQEEEEEDEDDEDDEEEDRMEVGPFSTGQESPTAENARLLAQKRGALQGSAWQVSSEDVRWDTFPLGRMPGQTEDPAELMLENYDTMYLLDQPVLEQRLEPSTCKTDTLGLSCGVGSGNCSNSSSSNFEGLLWSQGQLHGLKTGLQLF

- binding [2]: binds
B3: CTCF (protein, UniProt P49711 1-727)
chain: MEGDAVEAIVEESETFIKGKERKTYQRRREGGQEEDACHLPQNQTDGGEVVQDVNSSVQMVMMEQLDPTLLQMKTEVMEGTVAPEAEAAVDDTQIITLQVVNMEEQPINIGELQLVQVPVPVTVPVATTSVEELQGAYENEVSKEGLAESEPMICHTLPLPEGFQVVKVGANGEVETLEQGELPPQEDPSWQKDPDYQPPAKKTKKTKKSKLRYTEEGKDVDVSVYDFEEEQQEGLLSEVNAEKVVGNMKPPKPTKIKKKGVKKTFQCELCSYTCPRRSNLDRHMKSHTDERPHKCHLCGRAFRTVTLLRNHLNTHTGTRPHKCPDCDMAFVTSGELVRHRRYKHTHEKPFKCSMCDYASVEVSKLKRHIRSHTGERPFQCSLCSYASRDTYKLKRHMRTHSGEKPYECYICHARFTQSGTMKMHILQKHTENVAKFHCPHCDTVIARKSDLGVHLRKQHSYIEQGKKCRYCDAVFHERYALIQHQKSHKNEKRFKCDQCDYACRQERHMIMHKRTHTGEKPYACSHCDKTFRQKQLLDMHFKRYHDPNFVPAAFVCSKCGKTFTRRNTMARHADNCAGPDGVEGENGGETKKSKRGRKRKMRSKKEDSSDSENAEPDLDDNEDEEEPAVEIEPEPEPQPVTPAPPPAKKRRGRPPGRTNQPKQNQPTAIIQVEDQNTGAIENIIVEVKKEPDAEPAEGEEEEAQPAATDAPNGDLTPEMILSMMDR

- binding [2]: binds
B4: WDR18 (protein, UniProt Q9BV38 1-432)
chain: MAAPMEVAVCTDSAAPMWSCIVWELHSGANLLTYRGGQAGPRGLALLNGEYLLAAQLGKNYISAWELQRKDQLQQKIMCPGPVTCLTASPNGLYVLAGVAESIHLWEVSTGNLLVILSRHYQDVSCLQFTGDSSHFISGGKDCLVLVWSLCSVLQADPSRIPAPRHVWSHHALPITDLHCGFGGPLARVATSSLDQTVKLWEVSSGELLLSVLFDVSIMAVTMDLAEHHMFCGGSEGSIFQVDLFTWPGQRERSFHPEQDAGKVFKGHRNQVTCLSVSTDGSVLLSGSHDETVRLWDVQSKQCIRTVALKGPVTNAAILLAPVSMLSSDFRPSLPLPHFNKHLLGAEHGDEPRHGGLTLRLGLHQQGSEPSYLDRTEQLQAVLCSTMEKSVLGGQDQLRVRVTELEDEVRNLRKINRDLFDFSTRFITRPAK

- binding [2]: binds
B5: NOL9 (protein, UniProt Q5SY16 1-702)
chain: MADSGLLLKRGSCRSTWLRVRKARPQLILSRRPRRRLGSLRWCGRRRLRWRLLQAQASGVDWREGARQVSRAAAARRPNTATPSPIPSPTPASEPESEPELESASSCHRPLLIPPVRPVGPGRALLLLPVEQGFTFSGICRVTCLYGQVQVFGFTISQGQPAQDIFSVYTHSCLSIHALHYSQPEKSKKELKREARNLLKSHLNLDDRRWSMQNFSPQCSIVLLEHLKTATVNFITSYPGSSYIFVQESPTPQIKPEYLALRSVGIRREKKRKGLQLTESTLSALEELVNVSCEEVDGCPVILVCGSQDVGKSTFNRYLINHLLNSLPCVDYLECDLGQTEFTPPGCISLLNITEPVLGPPFTHLRTPQKMVYYGKPSCKNNYENYIDIVKYVFSAYKRESPLIVNTMGWVSDQGLLLLIDLIRLLSPSHVVQFRSDHSKYMPDLTPQYVDDMDGLYTKSKTKMRNRRFRLAAFADALEFADEEKESPVEFTGHKLIGVYTDFAFRITPRNRESHNKILRDLSILSYLSQLQPPMPKPLSPLHSLTPYQVPFNAVALRITHSDVAPTHILYAVNASWVGLCKIQDDVRGYTNGPILLAQTPICDCLGFGICRGIDMEKRLYHILTPVPPEELRTVNCLLVGAIAIPHCVLKCQRGIEGTVPYVTTDYNFKLPGASEKIGAREPEEAHKEKPYRRPKFCRKMK

— article doi:10.1101/2022.07.15.500188
